# Some of the results follow.
# B1: Awp3 (Candida glabrata), B4UN32 (protein)
# chain: MISFVTLLAILGLLSISWADQTVRSVAGDQRVTDPVIVGDNSILDYYGGSNYDFSNNFEIGRGTLYIGKESYFSSFQSAPTDVPNSFHLLIKNTNNLQNNGQFIIENIKRHANQCSNSSIQVFPINFQNDGEFEIISGGVEGRCCLPTSVIAPQNFLNNGKFYYKVLTDTGSIYSGSCMQNVDIGASTTTTVNNNLWEFTGSINAQINGAVSGAAQINLDGSNMFVNANTFSGQVVNLINGGSFLQTSDPLSNIVVINGLGTSDTGVTSIAVKGKGKSFTYNPSSGIVKLTTVEGKTYAYQIGCGYNTKKFITNNDSGASYESADNFFVLTYSEPYSPQTCQLENSSIFSSNFISTSTSSSSSSSSASSLPSSMSSSLPSSLSSSLSSSLSSSMSSSMSSLFIIPPPYTTTRSSGSSIIDTEIVSFYSTTDSPGHTITGTTTTTLYGPHTHSSVSTPSSSSESSTTSNSSIESSSLPHTSVSSTPESSITPSSNTISSSPTSDFSSVQSSSIMESSSVVASSSVINSSSIVDSSSSSASSLPSSMSSSLSSSMSSSLPSSMSSSLSSSLSSSLSSSMSSSMSSLFIIPPPYTTTRSSGSSIIDTEIVSFYSTTDSPGHTITGTTTTTLYGPHTHSSVSTPSSSSESSTTSNSSIESSSLPHTSVSSTPESSITPSSNTISSSPTSDFSSVQSSSIMESSSVVASSSVINSSSIVDSSSSSASSLPSSMPSSLPSSMSSSLSSSMSSSLSSSLSSSLSSSMSSSMSSLFIIPPPYTTTRSSGSSIIDTEIVSFYSTTDSPGHTITGTTTTTLYGPHTHSSVSTPSSSSESSTTSNSSIESSSLPHTSVSSTPESSITPSSNTISSSPTSDFSSVQSSSIMESSSVVASSSATQSSSVINSSSIVDSSSSSASSLPSSMPSSLPSSLSSSLSSSLSSSMSSSMSSLFIIPPPYTTTRSSGSSIIDTEIVSFYSTTDSPGHTITGTTTTTLYESSIYSSSSSTIQESELSNTSRTTMTSNSSVSISSTSSRSSFSNTKSSTIVISQSASLPDSKTDIILSTSSNIGYSSRSLLSDLGTSISDSDIHHSVLHSTESYSSNESGTNPFTSIASLSNFIPESSSHTSTALGSENSVISSDILTTMSHPVATNSGDKPTTPKRSEQVSTTMTSSGPTPDTSSFDTDGMSAYSRPEFTTNSLEVNKSSTSQLGNNKQTFSNLQLESTRPHSENEVDNNTRLLQSIQQSSTYGTNNVNPLSPTGSISIPLTEDGQGDNNNWNSPATNDLCTQISFNLTATTITVTDRITITDSIHDISSEVITSYIYQTIVDQKTVTQTVDGKSLANKMSSIPKPSSRSLIQPQPPVAIELQEGAASTSRVSLVSLFISIILVLL
# What was measured:
# Test in all cases: glycan array binding signal (z-score within array); higher = stronger binding
# Conditions in all cases: glycan notation: IUPAC condensed, linker removed
# Fuc(a1-2)Gal = biological target: Fuc(a1-2)Gal
# Summary of the method: (§1)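 The Consortium for Functional Glycomics database supplied 3228 glycan arrays, of which those lacking an available protein sequence were dropped. The binding signal, a within-array Z-score, was averaged across arrays of the same protein sequence and across linkers. Negative scores can be read as non-binding.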
# Fuc(a1-2)Gal(b1-3)GalNAc = biological target: Fuc(a1-2)Gal(b1-3)GalNAc
# Summary of the method: as §1
# [1] = biological target: Fuc(a1-2)Gal(b1-3)GalNAc(a1-3)[Fuc(a1-2)]Gal(b1-4)Glc
# Summary of the method: as §1
# [2] = biological target: Fuc(a1-2)Gal(b1-3)GalNAc(a1-3)[Fuc(a1-2)]Gal(b1-4)GlcNAc
# Summary of the method: as §1
# [3] = biological target: Fuc(a1-2)Gal(b1-3)GalNAc(b1-3)Gal
# Summary of the method: as §1
# [4] = biological target: Fuc(a1-2)Gal(b1-3)GalNAc(b1-3)Gal(a1-4)Gal(b1-4)Glc
# Summary of the method: as §1
# [5] = biological target: Fuc(a1-2)Gal(b1-3)GalNAc(b1-4)[Neu5Ac(a2-3)]Gal(b1-4)Glc
# Summary of the method: as §1
# Fuc(a1-2)Gal(b1-3)GlcNAc = biological target: Fuc(a1-2)Gal(b1-3)GlcNAc
# Summary of the method: as §1
# [6] = biological target: Fuc(a1-2)Gal(b1-3)GlcNAc(b1-2)Man(a1-3)[Fuc(a1-2)Gal(b1-3)GlcNAc(b1-2)Man(a1-6)]Man(b1-4)GlcNAc(b1-4)GlcNAc
# Summary of the method: as §1
# [7] = biological target: Fuc(a1-2)Gal(b1-3)GlcNAc(b1-2)Man(a1-3)[Fuc(a1-2)Gal(b1-3)GlcNAc(b1-2)Man(a1-6)]Man(b1-4)GlcNAc(b1-4)[Fuc(a1-6)]GlcNAc
# Summary of the method: as §1
# [8] = biological target: Fuc(a1-2)Gal(b1-3)GlcNAc(b1-3)Gal(b1-4)Glc
# Summary of the method: as §1
# [9] = biological target: Fuc(a1-2)Gal(b1-3)GlcNAc(b1-3)GalNAc
# Summary of the method: as §1
# [10] = biological target: Fuc(a1-2)Gal(b1-3)GlcNAc(b1-3)[Fuc(a1-2)Gal(b1-3)GlcNAc(b1-6)]GalNAc
# Summary of the method: as §1
# [11] = biological target: Fuc(a1-2)Gal(b1-3)GlcNAc(b1-3)[Gal(b1-4)GlcNAc(b1-6)]Gal(b1-4)Glc
# Summary of the method: as §1
# [12] = biological target: Fuc(a1-2)Gal(b1-3)GlcNAc(b1-3)[Neu5Ac(a2-6)Gal(b1-4)GlcNAc(b1-6)]Gal(b1-4)Glc
# Summary of the method: as §1
# [13] = biological target: Fuc(a1-2)Gal(b1-3)GlcNAc6S
# Summary of the method: as §1
# [14] = biological target: Fuc(a1-2)Gal(b1-3)[Fuc(a1-4)]GlcNAc
# Summary of the method: as §1
# [15] = biological target: Fuc(a1-2)Gal(b1-3)[Fuc(a1-4)]GlcNAc(b1-2)Man(a1-3)[Fuc(a1-2)Gal(b1-3)[Fuc(a1-4)]GlcNAc(b1-2)Man(a1-3)]Man(b1-4)GlcNAc(b1-4)GlcNAc
# Summary of the method: as §1
# [16] = biological target: Fuc(a1-2)Gal(b1-3)[Fuc(a1-4)]GlcNAc(b1-2)Man(a1-3)[Fuc(a1-2)Gal(b1-3)[Fuc(a1-4)]GlcNAc(b1-2)Man(a1-6)]Man(b1-4)GlcNAc(b1-4)[Fuc(a1-6)]GlcNAc(b1-4)[Fuc(a1-6)]GlcNAc
# Summary of the method: as §1
# [17] = biological target: Fuc(a1-2)Gal(b1-3)[Fuc(a1-4)]GlcNAc(b1-3)[Fuc(a1-3)[Gal(b1-4)]GlcNAc(b1-6)]Gal(b1-4)Glc
# Summary of the method: as §1
# [18] = biological target: Fuc(a1-2)Gal(b1-3)[Fuc(a1-4)]GlcNAc(b1-3)[Gal(b1-4)GlcNAc(b1-6)]Gal(b1-4)Glc
# Summary of the method: as §1
# Fuc(a1-2)Gal(b1-4)Glc = biological target: Fuc(a1-2)Gal(b1-4)Glc
# Summary of the method: as §1
# Fuc(a1-2)Gal(b1-4)Glc6S = biological target: Fuc(a1-2)Gal(b1-4)Glc6S
# Summary of the method: as §1
# Fuc(a1-2)Gal(b1-4)GlcNAc = biological target: Fuc(a1-2)Gal(b1-4)GlcNAc
# Summary of the method: as §1
# [19] = biological target: Fuc(a1-2)Gal(b1-4)GlcNAc(b1-2)Man
# Summary of the method: as §1
# [20] = biological target: Fuc(a1-2)Gal(b1-4)GlcNAc(b1-2)Man(a1-3)[Fuc(a1-2)Gal(b1-4)GlcNAc(b1-2)Man(a1-6)]Man(b1-4)GlcNAc(b1-4)GlcNAc
# Summary of the method: as §1
# [21] = biological target: Fuc(a1-2)Gal(b1-4)GlcNAc(b1-2)Man(a1-3)[Fuc(a1-2)Gal(b1-4)GlcNAc(b1-2)Man(a1-6)]Man(b1-4)GlcNAc(b1-4)[Fuc(a1-6)]GlcNAc
# Summary of the method: as §1
# [22] = biological target: Fuc(a1-2)Gal(b1-4)GlcNAc(b1-2)[Fuc(a1-2)Gal(b1-4)GlcNAc(b1-4)]Man(a1-3)[Fuc(a1-2)Gal(b1-4)GlcNAc(b1-2)Man(a1-6)]Man(b1-4)GlcNAc(b1-4)GlcNAc
# Summary of the method: as §1
# [23] = biological target: Fuc(a1-2)Gal(b1-4)GlcNAc(b1-3)Gal(b1-4)GlcNAc
# Summary of the method: as §1
# [24] = biological target: Fuc(a1-2)Gal(b1-4)GlcNAc(b1-3)Gal(b1-4)GlcNAc(b1-2)Man(a1-3)[Fuc(a1-2)Gal(b1-4)GlcNAc(b1-3)Gal(b1-4)GlcNAc(b1-2)Man(a1-6)]Man(b1-4)GlcNAc(b1-4)GlcNAc
# Summary of the method: as §1
binder,measurement,setting,value
B1,glycan array binding signal (z-score),Fuc(a1-2)Gal,-0.283
same,glycan array binding signal (z-score),Fuc(a1-2)Gal(b1-3)GalNAc,0.014
same,glycan array binding signal (z-score),[1],-0.482
same,glycan array binding signal (z-score),[2],-1.19
same,glycan array binding signal (z-score),[3],-0.409
same,glycan array binding signal (z-score),[4],2.34
same,glycan array binding signal (z-score),[5],0.812
same,glycan array binding signal (z-score),Fuc(a1-2)Gal(b1-3)GlcNAc,-0.793
same,glycan array binding signal (z-score),[6],-0.957
same,glycan array binding signal (z-score),[7],1.49
same,glycan array binding signal (z-score),[8],0.58
same,glycan array binding signal (z-score),[9],0.005
same,glycan array binding signal (z-score),[10],-0.693
same,glycan array binding signal (z-score),[11],0.739
same,glycan array binding signal (z-score),[12],-0.792
same,glycan array binding signal (z-score),[13],0.811
same,glycan array binding signal (z-score),[14],0.827
same,glycan array binding signal (z-score),[15],-0.701
same,glycan array binding signal (z-score),[16],0.156
same,glycan array binding signal (z-score),[17],0.791
same,glycan array binding signal (z-score),[18],-0.557
same,glycan array binding signal (z-score),Fuc(a1-2)Gal(b1-4)Glc,0.484
same,glycan array binding signal (z-score),Fuc(a1-2)Gal(b1-4)Glc6S,-0.996
same,glycan array binding signal (z-score),Fuc(a1-2)Gal(b1-4)GlcNAc,-0.106
same,glycan array binding signal (z-score),[19],-0.5
same,glycan array binding signal (z-score),[20],-1.06
same,glycan array binding signal (z-score),[21],0.401
same,glycan array binding signal (z-score),[22],3.23
same,glycan array binding signal (z-score),[23],-1.23
same,glycan array binding signal (z-score),[24],-1.57

# Rewritten with tabs: entries from further up.
binder	measurement	setting	value
B1	glycan array binding signal (z-score)	[10]	-0.693
same	glycan array binding signal (z-score)	[11]	0.739

# — the supplement of paper PMC8728848
